Source: PMC8998178
No constants are given. Whether binding was seen depends on the method and setting. Some entries that bind do so weakly or less than the wild type.

Protein sequences, listed by entry. Tags and fused reporters are not part of them. Residues count along the entry.
UniProt P51608: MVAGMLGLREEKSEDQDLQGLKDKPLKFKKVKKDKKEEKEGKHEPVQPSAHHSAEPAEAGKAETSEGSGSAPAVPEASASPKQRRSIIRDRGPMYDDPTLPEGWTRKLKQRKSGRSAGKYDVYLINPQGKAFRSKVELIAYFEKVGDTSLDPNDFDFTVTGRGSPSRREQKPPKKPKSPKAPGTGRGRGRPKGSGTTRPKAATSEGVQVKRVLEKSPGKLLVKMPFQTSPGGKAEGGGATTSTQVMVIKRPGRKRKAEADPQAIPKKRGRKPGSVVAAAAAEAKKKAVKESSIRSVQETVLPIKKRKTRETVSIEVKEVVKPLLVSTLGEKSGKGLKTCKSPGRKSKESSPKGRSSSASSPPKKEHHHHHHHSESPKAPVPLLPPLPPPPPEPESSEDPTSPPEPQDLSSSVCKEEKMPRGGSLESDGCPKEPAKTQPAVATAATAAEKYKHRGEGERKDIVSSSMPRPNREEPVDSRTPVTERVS
UniProt P70232, residues 1105-1209: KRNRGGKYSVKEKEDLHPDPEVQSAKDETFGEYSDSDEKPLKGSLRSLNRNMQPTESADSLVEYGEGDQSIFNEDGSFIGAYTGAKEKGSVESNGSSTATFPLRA
UniProt P11627, residues 1147-1260: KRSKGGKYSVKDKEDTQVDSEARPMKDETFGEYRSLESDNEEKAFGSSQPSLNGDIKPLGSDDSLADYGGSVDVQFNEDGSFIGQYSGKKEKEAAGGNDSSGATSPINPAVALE

Legend:
[1] = molecular target: recombinant full-length human MeCP2 (amino acids 1-486) with GST-tag (human) (UniProt P51608); experiment: ELISA; GST-tagged MeCP2 coated (25 µL of 5 µg/mL, 384-well plate); increasing concentrations of His-tagged L1-ICD or CHL1-ICD for 1 h at room temperature; detection with L1 antibody C-2 or CHL1 antibody C-18; both purified
[2] = molecular target: recombinant MeCP2 used as substrate-coat in the label-free binding assay (human) (UniProt P51608); experiment: label-free binding assay (BIND technology, peak wavelength shift); recombinant MeCP2 coated on a 384-well plate with TiO2 biosensor surface; L1-ICD and CHL1-ICD as soluble binding partners at increasing concentrations; both purified
[3] = molecular target: recombinant full-length human MeCP2 with a Flag-tag (human) (UniProt P51608); experiment: ELISA; competition ELISA: Flag-tagged MeCP2 coated (25 µL of 10 µg/mL); 2.5 µM L1-ICD preincubated for 1 h without or with a 5-fold molar excess of L1 peptides; detection with L1 antibody C-2; both purified

With “recombinant His-tagged intracellular domain of mouse CHL1 (CHL1-ICD) (from UniProt P70232 1105-1209) (domain or fragment)” the binding [1] was “no binding” and the binding [2] was “no binding”.

“recombinant His-tagged intracellular domain of mouse L1 (L1-ICD) (from UniProt P11627 1147-1260) (domain or fragment)” was tested, and the binding [2] was “binds” and the binding [3] was “binds”.
